Results: PMC3416844
No constants are given. Whether binding was seen depends on the method and setting. Binding seen in cells or lysates may run through a third protein. Some results given as binding are weak or reduced against the parent protein; the word gives no strength. For some assays here: Where a sequence is shown, tags or fusion partners need not be part of it.

Amino acid sequences for entries named in this document (tags omitted).
UniProt Q9JMB7: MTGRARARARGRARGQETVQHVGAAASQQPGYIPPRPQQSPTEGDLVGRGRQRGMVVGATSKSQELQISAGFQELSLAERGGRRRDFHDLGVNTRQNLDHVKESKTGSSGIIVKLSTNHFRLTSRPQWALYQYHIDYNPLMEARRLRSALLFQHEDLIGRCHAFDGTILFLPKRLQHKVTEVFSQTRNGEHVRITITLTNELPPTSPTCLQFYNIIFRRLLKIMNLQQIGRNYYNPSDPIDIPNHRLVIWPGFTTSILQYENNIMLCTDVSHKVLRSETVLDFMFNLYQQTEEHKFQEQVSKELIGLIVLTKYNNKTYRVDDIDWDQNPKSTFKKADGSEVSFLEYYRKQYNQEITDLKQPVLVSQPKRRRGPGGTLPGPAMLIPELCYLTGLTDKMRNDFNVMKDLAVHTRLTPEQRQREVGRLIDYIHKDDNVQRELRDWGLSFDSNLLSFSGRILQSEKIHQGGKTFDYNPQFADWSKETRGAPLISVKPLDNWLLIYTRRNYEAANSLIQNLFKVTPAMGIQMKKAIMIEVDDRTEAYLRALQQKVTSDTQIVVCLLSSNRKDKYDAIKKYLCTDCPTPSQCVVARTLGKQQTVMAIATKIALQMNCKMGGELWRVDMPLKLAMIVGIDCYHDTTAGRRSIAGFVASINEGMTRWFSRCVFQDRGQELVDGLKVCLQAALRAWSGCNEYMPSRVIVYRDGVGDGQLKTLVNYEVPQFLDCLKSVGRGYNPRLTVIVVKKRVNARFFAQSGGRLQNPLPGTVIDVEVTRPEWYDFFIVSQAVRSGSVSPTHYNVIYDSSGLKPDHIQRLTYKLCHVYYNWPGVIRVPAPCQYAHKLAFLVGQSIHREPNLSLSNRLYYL
UniProt Q9WTL8: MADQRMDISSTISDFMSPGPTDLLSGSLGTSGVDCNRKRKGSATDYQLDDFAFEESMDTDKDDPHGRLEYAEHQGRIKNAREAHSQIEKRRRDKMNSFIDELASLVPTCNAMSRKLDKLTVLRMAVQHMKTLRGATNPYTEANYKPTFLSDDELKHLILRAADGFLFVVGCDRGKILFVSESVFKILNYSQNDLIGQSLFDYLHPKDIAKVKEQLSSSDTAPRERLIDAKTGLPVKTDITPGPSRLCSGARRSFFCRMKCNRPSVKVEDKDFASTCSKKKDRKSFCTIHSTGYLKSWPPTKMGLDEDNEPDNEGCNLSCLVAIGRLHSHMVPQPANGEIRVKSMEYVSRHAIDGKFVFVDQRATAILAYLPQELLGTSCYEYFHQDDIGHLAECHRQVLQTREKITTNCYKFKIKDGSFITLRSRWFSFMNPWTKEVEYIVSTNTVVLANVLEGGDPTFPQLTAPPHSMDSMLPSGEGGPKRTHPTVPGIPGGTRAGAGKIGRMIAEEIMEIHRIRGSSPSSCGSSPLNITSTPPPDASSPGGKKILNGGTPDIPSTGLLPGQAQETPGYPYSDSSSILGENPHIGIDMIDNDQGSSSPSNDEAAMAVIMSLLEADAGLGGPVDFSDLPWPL
UniProt P63073: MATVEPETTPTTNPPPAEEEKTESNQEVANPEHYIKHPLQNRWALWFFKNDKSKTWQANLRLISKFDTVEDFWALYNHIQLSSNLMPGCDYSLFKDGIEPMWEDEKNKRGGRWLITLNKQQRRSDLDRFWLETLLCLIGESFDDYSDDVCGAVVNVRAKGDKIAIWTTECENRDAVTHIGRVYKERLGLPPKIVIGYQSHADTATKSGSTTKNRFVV

How the values were obtained:
[1] = target: T1, CLOCK (endogenous, mouse seminiferous tubules) (mouse (endogenous in seminiferous tubules)) (UniProt O08785); test: co-IP; 750 ug of total protein from seminiferous tubules of WT and Bmal1 KO mice; anti-CLOCK antibody; blots of endogenous proteins (Figure S1)
T1 sequence: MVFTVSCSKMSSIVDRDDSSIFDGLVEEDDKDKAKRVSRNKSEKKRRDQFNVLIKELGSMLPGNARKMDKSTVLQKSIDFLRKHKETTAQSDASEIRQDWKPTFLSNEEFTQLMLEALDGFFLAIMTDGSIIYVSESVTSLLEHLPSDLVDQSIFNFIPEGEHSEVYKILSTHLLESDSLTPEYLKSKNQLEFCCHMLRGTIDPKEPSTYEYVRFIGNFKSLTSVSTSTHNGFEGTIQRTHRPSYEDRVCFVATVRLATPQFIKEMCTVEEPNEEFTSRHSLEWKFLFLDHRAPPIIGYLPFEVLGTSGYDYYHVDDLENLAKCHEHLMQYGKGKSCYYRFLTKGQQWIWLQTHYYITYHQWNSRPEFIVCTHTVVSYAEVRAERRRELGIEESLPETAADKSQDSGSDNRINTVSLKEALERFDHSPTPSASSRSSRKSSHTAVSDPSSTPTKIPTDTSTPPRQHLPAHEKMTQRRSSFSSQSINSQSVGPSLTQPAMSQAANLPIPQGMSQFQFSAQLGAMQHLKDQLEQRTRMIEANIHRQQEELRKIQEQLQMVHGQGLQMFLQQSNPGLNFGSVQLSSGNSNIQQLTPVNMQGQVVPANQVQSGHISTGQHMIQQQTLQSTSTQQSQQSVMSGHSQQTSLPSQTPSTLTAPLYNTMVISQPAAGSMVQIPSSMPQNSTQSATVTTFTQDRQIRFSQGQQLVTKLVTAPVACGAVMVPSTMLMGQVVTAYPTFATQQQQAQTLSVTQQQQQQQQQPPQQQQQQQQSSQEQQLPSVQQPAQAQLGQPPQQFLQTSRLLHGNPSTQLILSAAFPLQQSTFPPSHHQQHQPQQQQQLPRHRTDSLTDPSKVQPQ

[2] = target: T2, Flag-MVH (mouse VASA homolog, ATP-dependent DEAD-box RNA helicase) (mouse) (UniProt Q61496); test: co-IP; HEK 293 cells co-transfected with Flag-MVH and Myc-CLOCK and/or Myc-BMAL1; lysed in modified RIPA buffer (50 mM Tris-HCl pH 8.0, 150 mM NaCl, 5 mM EDTA, 15 mM MgCl2, 1% NP-40); Flag-MVH precipitated on M2 Agarose overnight at 4°C; blots with anti-FLAG and anti-MYC
T2 sequence: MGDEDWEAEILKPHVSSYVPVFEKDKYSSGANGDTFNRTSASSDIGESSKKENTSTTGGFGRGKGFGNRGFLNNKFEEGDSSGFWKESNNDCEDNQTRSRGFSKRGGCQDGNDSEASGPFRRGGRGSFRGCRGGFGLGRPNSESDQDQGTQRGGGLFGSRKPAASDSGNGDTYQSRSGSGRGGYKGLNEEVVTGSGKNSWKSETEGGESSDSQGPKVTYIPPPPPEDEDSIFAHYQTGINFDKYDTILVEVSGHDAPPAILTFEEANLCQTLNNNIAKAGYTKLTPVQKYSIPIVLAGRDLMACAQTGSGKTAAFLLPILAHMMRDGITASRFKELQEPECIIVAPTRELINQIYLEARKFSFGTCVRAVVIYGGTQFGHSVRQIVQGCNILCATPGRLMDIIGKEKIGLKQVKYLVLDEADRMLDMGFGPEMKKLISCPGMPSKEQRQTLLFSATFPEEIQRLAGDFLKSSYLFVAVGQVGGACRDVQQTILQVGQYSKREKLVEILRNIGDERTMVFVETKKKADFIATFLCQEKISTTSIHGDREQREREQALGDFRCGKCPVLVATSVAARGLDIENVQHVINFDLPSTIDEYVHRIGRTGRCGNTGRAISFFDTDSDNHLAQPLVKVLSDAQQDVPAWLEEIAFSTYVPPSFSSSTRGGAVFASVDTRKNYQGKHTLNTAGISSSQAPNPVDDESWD

[3] = target: T1, CLOCK (endogenous, mouse seminiferous tubules) (mouse (endogenous in seminiferous tubules)); test: co-IP; cytoplasmic and nuclear lysates from seminiferous tubules of Bmal1 WT and Bmal1 KO mice (about 500 µg protein per fraction); anti-CLOCK antibody overnight at 4°C, protein G-agarose; blots of endogenous proteins

Molecule | binding [1] | binding [2] | further results
MIWI (mouse Argonaute/PIWI family RNA-binding protein; endogenous, mouse seminiferous tubules) (from UniProt Q9JMB7 1-862) | binds | – | –
Myc-BMAL1 (from UniProt Q9WTL8 1-632) | – | binds | –
eukaryotic translation initiation factor 4E (EIF4E; endogenous, mouse seminiferous tubules) (from UniProt P63073 1-217) | binds | – | –
Myc-CLOCK (protein, UniProt O08785 1-855) MVFTVSCSKMSSIVDRDDSSIFDGLVEEDDKDKAKRVSRNKSEKKRRDQFNVLIKELGSMLPGNARKMDKSTVLQKSIDFLRKHKETTAQSDASEIRQDWKPTFLSNEEFTQLMLEALDGFFLAIMTDGSIIYVSESVTSLLEHLPSDLVDQSIFNFIPEGEHSEVYKILSTHLLESDSLTPEYLKSKNQLEFCCHMLRGTIDPKEPSTYEYVRFIGNFKSLTSVSTSTHNGFEGTIQRTHRPSYEDRVCFVATVRLATPQFIKEMCTVEEPNEEFTSRHSLEWKFLFLDHRAPPIIGYLPFEVLGTSGYDYYHVDDLENLAKCHEHLMQYGKGKSCYYRFLTKGQQWIWLQTHYYITYHQWNSRPEFIVCTHTVVSYAEVRAERRRELGIEESLPETAADKSQDSGSDNRINTVSLKEALERFDHSPTPSASSRSSRKSSHTAVSDPSSTPTKIPTDTSTPPRQHLPAHEKMTQRRSSFSSQSINSQSVGPSLTQPAMSQAANLPIPQGMSQFQFSAQLGAMQHLKDQLEQRTRMIEANIHRQQEELRKIQEQLQMVHGQGLQMFLQQSNPGLNFGSVQLSSGNSNIQQLTPVNMQGQVVPANQVQSGHISTGQHMIQQQTLQSTSTQQSQQSVMSGHSQQTSLPSQTPSTLTAPLYNTMVISQPAAGSMVQIPSSMPQNSTQSATVTTFTQDRQIRFSQGQQLVTKLVTAPVACGAVMVPSTMLMGQVVTAYPTFATQQQQAQTLSVTQQQQQQQQQPPQQQQQQQQSSQEQQLPSVQQPAQAQLGQPPQQFLQTSRLLHGNPSTQLILSAAFPLQQSTFPPSHHQQHQPQQQQQLPRHRTDSLTDPSKVQPQ | – | binds | –
MVH (mouse VASA homolog; endogenous, mouse seminiferous tubules) (protein, UniProt Q61496 1-702) MGDEDWEAEILKPHVSSYVPVFEKDKYSSGANGDTFNRTSASSDIGESSKKENTSTTGGFGRGKGFGNRGFLNNKFEEGDSSGFWKESNNDCEDNQTRSRGFSKRGGCQDGNDSEASGPFRRGGRGSFRGCRGGFGLGRPNSESDQDQGTQRGGGLFGSRKPAASDSGNGDTYQSRSGSGRGGYKGLNEEVVTGSGKNSWKSETEGGESSDSQGPKVTYIPPPPPEDEDSIFAHYQTGINFDKYDTILVEVSGHDAPPAILTFEEANLCQTLNNNIAKAGYTKLTPVQKYSIPIVLAGRDLMACAQTGSGKTAAFLLPILAHMMRDGITASRFKELQEPECIIVAPTRELINQIYLEARKFSFGTCVRAVVIYGGTQFGHSVRQIVQGCNILCATPGRLMDIIGKEKIGLKQVKYLVLDEADRMLDMGFGPEMKKLISCPGMPSKEQRQTLLFSATFPEEIQRLAGDFLKSSYLFVAVGQVGGACRDVQQTILQVGQYSKREKLVEILRNIGDERTMVFVETKKKADFIATFLCQEKISTTSIHGDREQREREQALGDFRCGKCPVLVATSVAARGLDIENVQHVINFDLPSTIDEYVHRIGRTGRCGNTGRAISFFDTDSDNHLAQPLVKVLSDAQQDVPAWLEEIAFSTYVPPSFSSSTRGGAVFASVDTRKNYQGKHTLNTAGISSSQAPNPVDDESWD | – | – | binding [3]: binds
